In publication PMC12275198 one finds binding data, which are given here for two molecules.

No constants are given. Whether binding was seen depends on the method and setting. In cells and extracts the contact can be indirect. Some entries that bind do so weakly or less than the wild type. For some assays here: Where a sequence is shown, tags or fusion partners need not be part of it.

Assay [1] has as its target T1, Yaf9, ENL, AF9, Taf14, Sas5 (YEATS) domain-containing 2 (YEATS2), endogenous (human (endogenous in 293T)) (UniProt Q9ULM3).
T1 sequence: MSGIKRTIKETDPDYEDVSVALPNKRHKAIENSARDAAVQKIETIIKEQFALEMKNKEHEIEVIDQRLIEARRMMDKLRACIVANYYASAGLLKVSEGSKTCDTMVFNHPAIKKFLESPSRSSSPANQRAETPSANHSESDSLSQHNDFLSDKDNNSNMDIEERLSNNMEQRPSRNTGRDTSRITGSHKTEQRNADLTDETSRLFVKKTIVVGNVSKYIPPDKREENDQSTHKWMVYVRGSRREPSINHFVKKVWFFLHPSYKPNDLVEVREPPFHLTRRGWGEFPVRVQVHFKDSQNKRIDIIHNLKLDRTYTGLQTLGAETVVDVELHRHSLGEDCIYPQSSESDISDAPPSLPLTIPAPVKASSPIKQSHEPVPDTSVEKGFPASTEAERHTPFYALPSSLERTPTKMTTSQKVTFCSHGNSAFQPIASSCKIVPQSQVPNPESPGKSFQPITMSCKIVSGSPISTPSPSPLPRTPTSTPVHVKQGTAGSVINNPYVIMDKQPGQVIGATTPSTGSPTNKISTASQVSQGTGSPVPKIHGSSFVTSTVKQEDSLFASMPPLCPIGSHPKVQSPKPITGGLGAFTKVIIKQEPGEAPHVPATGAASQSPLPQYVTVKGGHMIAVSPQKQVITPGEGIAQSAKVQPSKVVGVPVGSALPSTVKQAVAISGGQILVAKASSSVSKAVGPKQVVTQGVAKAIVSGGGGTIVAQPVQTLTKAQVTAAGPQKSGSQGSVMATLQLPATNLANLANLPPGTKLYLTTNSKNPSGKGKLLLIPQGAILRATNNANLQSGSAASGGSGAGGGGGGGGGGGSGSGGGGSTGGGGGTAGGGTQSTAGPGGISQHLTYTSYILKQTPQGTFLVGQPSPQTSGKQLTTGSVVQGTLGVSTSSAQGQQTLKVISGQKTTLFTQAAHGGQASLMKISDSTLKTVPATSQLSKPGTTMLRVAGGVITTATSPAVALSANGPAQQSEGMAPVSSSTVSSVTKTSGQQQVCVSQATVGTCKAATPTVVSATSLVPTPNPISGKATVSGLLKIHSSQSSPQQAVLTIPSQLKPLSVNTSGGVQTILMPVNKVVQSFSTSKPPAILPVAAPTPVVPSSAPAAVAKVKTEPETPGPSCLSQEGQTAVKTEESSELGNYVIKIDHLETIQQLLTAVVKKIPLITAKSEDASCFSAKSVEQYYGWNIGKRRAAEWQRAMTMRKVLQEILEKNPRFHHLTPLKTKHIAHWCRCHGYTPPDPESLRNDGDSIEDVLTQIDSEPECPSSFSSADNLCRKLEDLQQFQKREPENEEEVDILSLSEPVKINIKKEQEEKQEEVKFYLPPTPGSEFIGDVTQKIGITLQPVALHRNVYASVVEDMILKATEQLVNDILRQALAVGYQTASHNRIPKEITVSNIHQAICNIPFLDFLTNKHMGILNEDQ
Description: co-IP; endogenous proteins in 293T cell extracts; IP with anti-OGT and blot with anti-YEATS2, and the reverse (IP with anti-YEATS2).

Assay [2] concerns the target T2, FLAG-YEATS2 (UniProt Q9ULM3).
T2 sequence: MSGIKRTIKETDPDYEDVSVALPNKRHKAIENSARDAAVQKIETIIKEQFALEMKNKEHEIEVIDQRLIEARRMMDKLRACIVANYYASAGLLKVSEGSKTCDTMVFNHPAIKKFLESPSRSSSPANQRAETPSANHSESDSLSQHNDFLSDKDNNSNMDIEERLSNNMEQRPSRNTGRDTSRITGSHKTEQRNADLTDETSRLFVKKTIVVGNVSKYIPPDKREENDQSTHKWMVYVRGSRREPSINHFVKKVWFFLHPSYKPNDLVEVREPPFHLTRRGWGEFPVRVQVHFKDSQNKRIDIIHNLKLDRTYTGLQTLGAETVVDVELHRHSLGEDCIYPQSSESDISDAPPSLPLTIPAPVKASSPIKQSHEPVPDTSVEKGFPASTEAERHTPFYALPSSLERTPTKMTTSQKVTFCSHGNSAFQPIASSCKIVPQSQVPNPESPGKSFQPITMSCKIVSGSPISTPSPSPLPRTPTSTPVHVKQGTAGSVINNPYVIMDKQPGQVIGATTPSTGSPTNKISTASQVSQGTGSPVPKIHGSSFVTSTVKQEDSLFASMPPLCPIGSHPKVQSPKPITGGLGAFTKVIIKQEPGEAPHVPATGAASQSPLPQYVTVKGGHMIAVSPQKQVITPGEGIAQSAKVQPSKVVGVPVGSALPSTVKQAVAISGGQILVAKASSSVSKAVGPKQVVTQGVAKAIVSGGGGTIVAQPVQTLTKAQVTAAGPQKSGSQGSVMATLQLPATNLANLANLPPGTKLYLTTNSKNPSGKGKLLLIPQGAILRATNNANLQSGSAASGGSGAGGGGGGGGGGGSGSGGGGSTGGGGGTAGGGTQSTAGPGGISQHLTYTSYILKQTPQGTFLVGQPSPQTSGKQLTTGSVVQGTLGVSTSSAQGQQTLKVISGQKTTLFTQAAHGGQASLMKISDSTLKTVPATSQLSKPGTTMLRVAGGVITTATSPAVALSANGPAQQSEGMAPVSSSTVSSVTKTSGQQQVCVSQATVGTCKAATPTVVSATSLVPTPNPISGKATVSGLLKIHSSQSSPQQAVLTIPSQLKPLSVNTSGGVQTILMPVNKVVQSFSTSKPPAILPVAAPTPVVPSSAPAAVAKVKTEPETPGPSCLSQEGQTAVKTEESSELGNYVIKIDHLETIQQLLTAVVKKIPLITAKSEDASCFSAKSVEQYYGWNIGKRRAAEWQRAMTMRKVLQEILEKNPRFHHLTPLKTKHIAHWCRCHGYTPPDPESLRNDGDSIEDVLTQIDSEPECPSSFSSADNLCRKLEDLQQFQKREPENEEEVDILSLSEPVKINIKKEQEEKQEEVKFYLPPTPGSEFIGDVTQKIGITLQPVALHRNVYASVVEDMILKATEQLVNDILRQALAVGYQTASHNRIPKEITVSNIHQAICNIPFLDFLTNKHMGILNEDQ
Description: co-IP; 293T cells cotransfected with HA-OGT and FLAG-YEATS2; IP with anti-FLAG antibody, immunoblot. On the technique in general: Immunoblotting shows a protein as a band on a membrane.

B1: O-GlcNAc transferase (OGT), endogenous (enzyme, UniProt O15294 1-1046)
chain: MASSVGNVADSTEPTKRMLSFQGLAELAHREYQAGDFEAAERHCMQLWRQEPDNTGVLLLLSSIHFQCRRLDRSAHFSTLAIKQNPLLAEAYSNLGNVYKERGQLQEAIEHYRHALRLKPDFIDGYINLAAALVAAGDMEGAVQAYVSALQYNPDLYCVRSDLGNLLKALGRLEEAKACYLKAIETQPNFAVAWSNLGCVFNAQGEIWLAIHHFEKAVTLDPNFLDAYINLGNVLKEARIFDRAVAAYLRALSLSPNHAVVHGNLACVYYEQGLIDLAIDTYRRAIELQPHFPDAYCNLANALKEKGSVAEAEDCYNTALRLCPTHADSLNNLANIKREQGNIEEAVRLYRKALEVFPEFAAAHSNLASVLQQQGKLQEALMHYKEAIRISPTFADAYSNMGNTLKEMQDVQGALQCYTRAIQINPAFADAHSNLASIHKDSGNIPEAIASYRTALKLKPDFPDAYCNLAHCLQIVCDWTDYDERMKKLVSIVADQLEKNRLPSVHPHHSMLYPLSHGFRKAIAERHGNLCLDKINVLHKPPYEHPKDLKLSDGRLRVGYVSSDFGNHPTSHLMQSIPGMHNPDKFEVFCYALSPDDGTNFRVKVMAEANHFIDLSQIPCNGKAADRIHQDGIHILVNMNGYTKGARNELFALRPAPIQAMWLGYPGTSGALFMDYIITDQETSPAEVAEQYSEKLAYMPHTFFIGDHANMFPHLKKKAVIDFKSNGHIYDNRIVLNGIDLKAFLDSLPDVKIVKMKCPDGGDNADSSNTALNMPVIPMNTIAEAVIEMINRGQIQITINGFSISNGLATTQINNKAATGEEVPRTIIVTTRSQYGLPEDAIVYCNFNQLYKIDPSTLQMWANILKRVPNSVLWLLRFPAVGEPNIQQYAQNMGLPQNRIIFSPVAPKEEHVRRGQLADVCLDTPLCNGHTTGMDVLWAGTPMVTMPGETLASRVAASQLTCLGCLELIAKNRQEYEDIAVKLGTDLEYLKKVRGKVWKQRISSPLFNTKQYTMELERLYLQMWEHYAAGNKPDHMIKPVEVTESA
For B1, in assay [1], the binding entry is listed as “binds”.

B2: HA-OGT (enzyme, UniProt O15294 1-1046)
chain: MASSVGNVADSTEPTKRMLSFQGLAELAHREYQAGDFEAAERHCMQLWRQEPDNTGVLLLLSSIHFQCRRLDRSAHFSTLAIKQNPLLAEAYSNLGNVYKERGQLQEAIEHYRHALRLKPDFIDGYINLAAALVAAGDMEGAVQAYVSALQYNPDLYCVRSDLGNLLKALGRLEEAKACYLKAIETQPNFAVAWSNLGCVFNAQGEIWLAIHHFEKAVTLDPNFLDAYINLGNVLKEARIFDRAVAAYLRALSLSPNHAVVHGNLACVYYEQGLIDLAIDTYRRAIELQPHFPDAYCNLANALKEKGSVAEAEDCYNTALRLCPTHADSLNNLANIKREQGNIEEAVRLYRKALEVFPEFAAAHSNLASVLQQQGKLQEALMHYKEAIRISPTFADAYSNMGNTLKEMQDVQGALQCYTRAIQINPAFADAHSNLASIHKDSGNIPEAIASYRTALKLKPDFPDAYCNLAHCLQIVCDWTDYDERMKKLVSIVADQLEKNRLPSVHPHHSMLYPLSHGFRKAIAERHGNLCLDKINVLHKPPYEHPKDLKLSDGRLRVGYVSSDFGNHPTSHLMQSIPGMHNPDKFEVFCYALSPDDGTNFRVKVMAEANHFIDLSQIPCNGKAADRIHQDGIHILVNMNGYTKGARNELFALRPAPIQAMWLGYPGTSGALFMDYIITDQETSPAEVAEQYSEKLAYMPHTFFIGDHANMFPHLKKKAVIDFKSNGHIYDNRIVLNGIDLKAFLDSLPDVKIVKMKCPDGGDNADSSNTALNMPVIPMNTIAEAVIEMINRGQIQITINGFSISNGLATTQINNKAATGEEVPRTIIVTTRSQYGLPEDAIVYCNFNQLYKIDPSTLQMWANILKRVPNSVLWLLRFPAVGEPNIQQYAQNMGLPQNRIIFSPVAPKEEHVRRGQLADVCLDTPLCNGHTTGMDVLWAGTPMVTMPGETLASRVAASQLTCLGCLELIAKNRQEYEDIAVKLGTDLEYLKKVRGKVWKQRISSPLFNTKQYTMELERLYLQMWEHYAAGNKPDHMIKPVEVTESA
Take B2: in assay [2], the binding result is recorded as “binds”.
